# Source: article PMC5487213
# Amino acid sequences for entries named in this document (tags omitted). A change or cut given only in a name is not applied to a line headed by its entry.
# UniProt P29341: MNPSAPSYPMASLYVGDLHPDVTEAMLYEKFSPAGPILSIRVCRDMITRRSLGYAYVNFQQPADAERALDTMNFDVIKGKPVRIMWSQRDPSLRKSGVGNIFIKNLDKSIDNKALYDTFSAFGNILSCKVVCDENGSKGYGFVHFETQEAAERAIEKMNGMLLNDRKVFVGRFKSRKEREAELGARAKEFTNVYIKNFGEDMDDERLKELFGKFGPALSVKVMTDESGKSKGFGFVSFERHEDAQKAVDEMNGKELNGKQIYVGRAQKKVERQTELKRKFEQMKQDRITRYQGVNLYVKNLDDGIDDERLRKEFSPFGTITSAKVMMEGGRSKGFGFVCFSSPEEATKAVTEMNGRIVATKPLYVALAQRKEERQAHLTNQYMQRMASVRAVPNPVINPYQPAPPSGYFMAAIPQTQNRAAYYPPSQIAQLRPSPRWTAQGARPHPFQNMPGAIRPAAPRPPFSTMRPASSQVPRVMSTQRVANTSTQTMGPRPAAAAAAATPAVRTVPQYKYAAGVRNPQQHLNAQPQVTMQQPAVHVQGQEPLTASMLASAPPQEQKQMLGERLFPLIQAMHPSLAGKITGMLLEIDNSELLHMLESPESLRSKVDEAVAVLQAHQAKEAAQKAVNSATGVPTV
# UniProt Q6NZJ6: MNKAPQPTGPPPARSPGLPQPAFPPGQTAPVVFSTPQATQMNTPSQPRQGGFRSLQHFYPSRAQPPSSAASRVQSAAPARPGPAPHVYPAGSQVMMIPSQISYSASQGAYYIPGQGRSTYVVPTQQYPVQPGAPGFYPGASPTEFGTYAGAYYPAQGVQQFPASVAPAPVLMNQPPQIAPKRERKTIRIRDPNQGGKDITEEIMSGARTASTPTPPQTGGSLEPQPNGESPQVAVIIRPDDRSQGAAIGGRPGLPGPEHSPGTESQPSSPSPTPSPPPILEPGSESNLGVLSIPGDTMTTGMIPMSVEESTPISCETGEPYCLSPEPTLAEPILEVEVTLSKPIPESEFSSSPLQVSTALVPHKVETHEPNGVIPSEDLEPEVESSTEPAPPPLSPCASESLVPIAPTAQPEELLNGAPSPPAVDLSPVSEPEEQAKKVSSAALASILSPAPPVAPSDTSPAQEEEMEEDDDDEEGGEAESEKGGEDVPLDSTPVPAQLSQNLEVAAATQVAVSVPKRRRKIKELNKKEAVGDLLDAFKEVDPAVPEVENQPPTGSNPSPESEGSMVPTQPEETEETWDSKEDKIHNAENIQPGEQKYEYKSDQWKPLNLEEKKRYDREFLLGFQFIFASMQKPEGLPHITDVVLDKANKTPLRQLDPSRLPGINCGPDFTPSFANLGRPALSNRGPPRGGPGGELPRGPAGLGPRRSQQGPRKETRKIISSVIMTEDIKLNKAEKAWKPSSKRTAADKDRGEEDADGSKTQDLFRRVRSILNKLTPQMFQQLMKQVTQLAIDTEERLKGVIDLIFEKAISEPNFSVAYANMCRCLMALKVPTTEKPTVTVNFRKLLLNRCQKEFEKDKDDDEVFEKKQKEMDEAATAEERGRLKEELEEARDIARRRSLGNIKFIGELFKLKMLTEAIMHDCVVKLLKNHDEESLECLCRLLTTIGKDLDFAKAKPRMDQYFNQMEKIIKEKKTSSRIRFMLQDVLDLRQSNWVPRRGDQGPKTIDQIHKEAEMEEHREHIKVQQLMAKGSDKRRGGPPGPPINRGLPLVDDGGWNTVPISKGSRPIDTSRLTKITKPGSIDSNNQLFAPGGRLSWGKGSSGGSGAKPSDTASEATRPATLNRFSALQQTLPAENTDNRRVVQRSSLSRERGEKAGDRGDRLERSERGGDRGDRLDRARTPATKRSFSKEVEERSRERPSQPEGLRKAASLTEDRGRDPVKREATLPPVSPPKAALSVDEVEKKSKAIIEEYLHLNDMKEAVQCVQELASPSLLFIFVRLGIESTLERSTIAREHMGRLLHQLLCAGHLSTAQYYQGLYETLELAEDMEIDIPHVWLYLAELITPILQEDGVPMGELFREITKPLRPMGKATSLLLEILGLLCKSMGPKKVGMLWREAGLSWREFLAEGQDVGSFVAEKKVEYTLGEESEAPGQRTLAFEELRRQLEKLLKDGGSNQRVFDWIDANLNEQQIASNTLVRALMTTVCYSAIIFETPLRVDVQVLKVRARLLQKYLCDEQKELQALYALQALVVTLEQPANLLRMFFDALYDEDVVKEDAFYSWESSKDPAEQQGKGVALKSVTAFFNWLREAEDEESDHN
# These are yes or no findings as the source states them, for the method shown. For some assays here: In cells and extracts the contact can be indirect. Some entries that bind do so weakly or less than the wild type.
# What was measured:
# [1] = target: GST-PABPC1 (mouse PABPC1, wild type) (mouse) (UniProt P29341); assay: pull-down; equimolar purified proteins mixed with or without RNase A in 1X PBS, 3 hr at 4°C; complexes isolated on Glutathione-Magnetic beads (2 hr, 4°C), SDS-PAGE, Coomassie stain; both purified
# [2] = target: FLAG-PABPC1 (cytosolic poly(A)-binding protein 1, wild type) (mouse) (UniProt P29341); assay: co-IP; C2C12 cells infected with adenovirus for 4 days; 1-5 mg lysate on anti-Flag magnetic beads, 4°C, 6 hr; blot with anti-eIF4G1 antibody
Substance,binding [1],binding [2]
His-eIF4GI_((161-225 a.a)) (PABPC1-binding domain of eIF4G1) (from UniProt Q6NZJ6 161-225) (domain or fragment),binds,
eIF4G1 (endogenous) (from UniProt Q6NZJ6 1-1600),,binds
